Assay [1] deals with T1, Smad4 (human (endogenous in hVA-MSC)), Q13485.
T1 chain: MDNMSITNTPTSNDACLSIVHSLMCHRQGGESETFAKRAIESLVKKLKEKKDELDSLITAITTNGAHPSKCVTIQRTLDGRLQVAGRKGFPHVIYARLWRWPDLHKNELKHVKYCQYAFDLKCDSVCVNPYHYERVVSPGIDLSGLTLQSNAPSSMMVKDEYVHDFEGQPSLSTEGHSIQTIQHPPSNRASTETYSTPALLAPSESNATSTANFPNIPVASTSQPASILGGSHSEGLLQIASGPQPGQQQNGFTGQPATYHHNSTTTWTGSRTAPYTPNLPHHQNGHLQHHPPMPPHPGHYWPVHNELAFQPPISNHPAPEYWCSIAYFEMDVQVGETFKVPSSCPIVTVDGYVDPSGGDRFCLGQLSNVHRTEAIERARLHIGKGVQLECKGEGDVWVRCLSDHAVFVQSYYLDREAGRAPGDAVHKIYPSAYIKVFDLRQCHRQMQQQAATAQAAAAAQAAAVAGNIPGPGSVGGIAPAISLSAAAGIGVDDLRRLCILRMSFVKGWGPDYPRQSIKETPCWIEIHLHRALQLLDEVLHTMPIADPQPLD
In words: co-IP; lysates of hVA-MSC after 10 days of adipogenic induction with/out IFNγ (10 ng/ml) and/or Galunisertib (20 µM), collected under non-denaturing condition; ~300 µg protein per IP; monoclonal antibodies against STAT5, Smad3 or Smad4, 4 °C overnight; Protein A/G magnetic beads; washed in TBST + 0.1% TritonX100; western blot. Particulars: remark: other sources report otherwise.

The target of assay [2] is Smad3 (human (endogenous in hVA-MSC)), P84022. Described as above. Particulars: remark: other sources report otherwise.

These are yes or no findings as the source states them, for the method shown. In cells and extracts the contact can be indirect. Some binding calls cover weakened binding; strength is not graded here.

B1: Smad3, P84022 1-425 (protein)
chain: MSSILPFTPPIVKRLLGWKKGEQNGQEEKWCEKAVKSLVKKLKKTGQLDELEKAITTQNVNTKCITIPRSLDGRLQVSHRKGLPHVIYCRLWRWPDLHSHHELRAMELCEFAFNMKKDEVCVNPYHYQRVETPVLPPVLVPRHTEIPAEFPPLDDYSHSIPENTNFPAGIEPQSNIPETPPPGYLSEDGETSDHQMNHSMDAGSPNLSPNPMSPAHNNLDLQPVTYCEPAFWCSISYYELNQRVGETFHASQPSMTVDGFTDPSNSERFCLGLLSNVNRNAAVELTRRHIGRGVRLYYIGGEVFAECLSDSAIFVQSPNCNQRYGWHPATVCKIPPGCNLKIFNNQEFAALLAQSVNQGFEAVYQLTRMCTIRMSFVKGWGAEYRRQTVTSTPCWIELHLNGPLQWLDKVLTQMGSPSIRCSSVS
Regarding B1, the binding result in assay [1] was “binds”.

B2: Smad4, Q13485 1-552 (protein)
chain: T1 chain
Regarding B2, the binding result in assay [2] is “binds”.

The values are drawn from publication PMC9433418.
